Assay results taken from article PMC4884944.

Protein sequences, listed by entry. Tags and fused reporters are not part of them.
UniProt Q05086: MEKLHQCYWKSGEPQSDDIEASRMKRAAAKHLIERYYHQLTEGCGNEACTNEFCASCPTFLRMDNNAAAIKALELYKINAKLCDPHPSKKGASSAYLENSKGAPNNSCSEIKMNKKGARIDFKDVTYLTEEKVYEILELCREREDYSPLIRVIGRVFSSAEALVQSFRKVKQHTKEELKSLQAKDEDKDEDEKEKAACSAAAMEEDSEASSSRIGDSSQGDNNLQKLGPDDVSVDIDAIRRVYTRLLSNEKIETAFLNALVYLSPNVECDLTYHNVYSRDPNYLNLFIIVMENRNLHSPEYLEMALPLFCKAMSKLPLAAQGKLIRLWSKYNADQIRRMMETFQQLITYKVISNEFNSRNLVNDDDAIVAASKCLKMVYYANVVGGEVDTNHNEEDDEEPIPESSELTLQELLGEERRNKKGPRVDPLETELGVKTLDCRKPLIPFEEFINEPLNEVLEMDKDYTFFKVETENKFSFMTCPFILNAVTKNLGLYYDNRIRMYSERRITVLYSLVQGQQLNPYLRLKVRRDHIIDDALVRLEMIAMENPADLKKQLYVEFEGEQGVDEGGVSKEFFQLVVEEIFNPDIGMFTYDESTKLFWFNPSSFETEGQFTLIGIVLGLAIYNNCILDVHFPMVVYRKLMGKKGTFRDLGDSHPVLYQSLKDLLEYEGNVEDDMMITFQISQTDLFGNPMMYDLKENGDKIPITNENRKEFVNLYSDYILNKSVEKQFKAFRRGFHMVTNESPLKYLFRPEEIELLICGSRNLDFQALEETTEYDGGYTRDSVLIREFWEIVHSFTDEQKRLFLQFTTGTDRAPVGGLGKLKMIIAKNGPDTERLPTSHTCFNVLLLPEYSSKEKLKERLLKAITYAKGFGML

Molecular target: GST-tagged E6AP (ubiquitin-protein ligase E6-associated protein) (UniProt Q05086)
Test: affinity purification with mass spectrometry; purified GST-E6AP incubated with 1 mg whole cell extract (RIPA) of HL60 cells treated with 1.0 uM ATRA for 0, 24 and 48 h, NETN buffer; bands cut from colloidal coomassie gel, trypsin, MALDI-TOF/TOF; only the target purified

B1: MAX-binding protein MNT, endogenous in myeloid cells (protein, UniProt Q99583 1-582)
chain: MSIETLLEAARFLEWQAQQQQRAREEQERLRLEQEREQEQKKANSLARLAHTLPVEEPRMEAPPLPLSPPAPPPAPPPPLATPAPLTVIPIPVVTNSPQPLPPPPPLPAAAQPLPLAPRQPALVGAPGLSIKEPAPLPSRPQVPTPAPLLPDSKATIPPNGSPKPLQPLPTPVLTIAPHPGVQPQLAPQQPPPPTLGTLKLAPAEEVKSSEQKKRPGGIGTREVHNKLEKNRRAHLKECFETLKRNIPNVDDKKTSNLSVLRTALRYIQSLKRKEKEYEHEMERLAREKIATQQRLAELKHELSQWMDVLEIDRVLRQTGQPEDDQASTSTASEGEDNIDEDMEEDRAGLGPPKLSHRPQPELLKSTLPPPSTTPAPLPPHPHPHPHSVALPPAHLPVQQQQPQQKTPLPAPPPPPAAPAQTLVPAPAHLVATAGGGSTVIAHTATTHASVIQTVNHVLQGPGGKHIAHIAPSAPSPAVQLAPATPPIGHITVHPATLNHVAHLGSQLPLYPQPVAVSHIAHTLSHQQVNGTAGLGPPATVMAKPAVGAQVVHHPQLVGQTVLNPVTMVTMPSFPVSTLKLA
binding: binds

Results are given in words; binding and its absence hold for the method and conditions named. Binding seen in cells or lysates may run through a third protein. A yes stands for co-enrichment or nearness to the bait. Other partners may have been found.
